# PubChem BioAssay AID652243, Drosophila RNAi Screening Center, 2013
# Screen: 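Knock-downs that decrease or increase androgen receptor reporter signal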 (primary screen)
# Cell system: Drosophila S2R+ cells
# Reagents: long dsRNA against Drosophila genes
# Timing: 72 h (48 h, then 24 h hormone)
# Challenge: synthetic androgen R1881 at 10 nM for 24 h
# Measurement: 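Firefly light from an androgen-responsive reporter and Renilla control light per well, raw and unnormalised, for each of two replicates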
# Scale: firefly reporter light: higher = more light from androgen-responsive reporter; Renilla control light: higher = more constitutive control signal (cell number, transfection)
# Call rule: 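Across duplicate plates, a knock-down whose log firefly/Renilla ratio shifted a set fold down or up from the GFP/LacZ control mean was a hit; the downward cut appears as both 1.5 and 3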
# Meaning of the calls: active = hit: reporter lowered or raised; inactive = no hit
# In all, the deposit lists about 24,000 reagents; this is a random part of those with a known target gene and a result. Of all reagents, 246 (1%) got an active call. 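Plates not normalised; calls are printed but the firefly/Renilla ratio behind them is not deposited; fold cut for lowering reported inconsistently.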 The raw values are shown without normalisation. A number with no mark means an inactive call. Names joined by + are all predicted targets of the reagent. The record does not give: the amount of reagent.
target gene,dsRNA,"firefly reporter light, replicate 1","firefly reporter light, replicate 2","Renilla control light, replicate 1","Renilla control light, replicate 2"
CG2898,DRSC18238,3.28e5,4.13e5,2.54e6,3.81e6
CG7744,DRSC07036,1.41e6,8.11e5,1.95e6,1.70e6
CG30430,DRSC22260,7.74e5,7.72e5,1.04e6,9.04e5
CG31294,DRSC22217,5.31e5,5.96e5,2.47e6,1.84e6
CG31294,DRSC26865,2.79e5,2.91e5,5.21e5,5.44e5
CG9624,DRSC16523,85874,78252,1.86e6,1.95e6
CG5062,DRSC18385,2.30e5,3.62e5,2.62e6,1.57e6
m (miniature),DRSC20181,2.67e5,3.34e5,2.80e6,2.61e6
m (miniature),DRSC29636,1.55e5,2.63e5,7.82e5,7.82e5
Pisd (Phosphatidylserine decarboxylase),DRSC15935,1.16e5,1.02e5,5.03e5,5.49e5
Vha16-2 (Vacuolar H[+] ATPase 16kD subunit 2),DRSC10873,2.89e5,2.30e5,2.31e6,1.93e6
Vha16-2 (Vacuolar H[+] ATPase 16kD subunit 2),DRSC25504,9.26e5,5.01e5,2.04e6,7.19e5
CG16820,DRSC02522,1.04e6,1.37e6,2.76e6,2.47e6
Cht4 (Chitinase 4),DRSC04603,3.72e5,3.92e5,1.90e6,1.58e6
CG6048,DRSC18398,3.16e5,6.06e5,2.83e6,2.74e6
CG6048,DRSC29218,6.23e5,6.58e5,1.07e6,1.46e6
lace,DRSC03564,6.53e5,4.72e5,1.23e6,1.47e6
CG3587,DRSC18541,3.89e5,3.02e5,1.43e6,6.84e5
CG3587,DRSC21966,5.96e5,5.09e5,1.43e6,1.03e6
iPLA2-VIA (calcium-independent phospholipase A2 VIA),DRSC10699,9.80e5,9.80e5,1.48e6,1.87e6
lncRNA:CR33987 (long non-coding RNA:CR33987),DRSC26079,5.21e5,3.78e5,7.67e5,8.27e5
CG4477,DRSC10425,2.42e5,2.80e5,3.01e6,2.14e6
NaPi-T (Na[+]-dependent inorganic phosphate cotransporter),DRSC07476,1.43e5,1.24e5,2.46e6,2.46e6
NaPi-T (Na[+]-dependent inorganic phosphate cotransporter),DRSC24468,4.89e5,3.95e5,4.76e5,4.66e5
CG16779,DRSC15153,1.14e5,1.78e5,2.74e6,1.95e6
Hcf (Host cell factor),DRSC17143,1.27e5,1.41e5,1.15e6,6.92e5
mRpS22 (mitochondrial ribosomal protein S22),DRSC14488,51805,56406,5.98e5,6.55e5
mRpS22 (mitochondrial ribosomal protein S22),DRSC28355,5.61e5,9.40e5,1.28e6,1.23e6
CG5196,DRSC15735,1.98e5,1.79e5,2.25e6,2.01e6
CG5196,DRSC26959,3.42e5,3.13e5,5.89e5,4.27e5
blow (blown fuse),DRSC07586,8.84e5,4.28e5,1.55e6,1.42e6
blow (blown fuse),DRSC27716,2.06e5,2.30e5,6.45e5,6.58e5
lmgA + lmgB,DRSC03566,1.57e5,1.65e5,1.29e6,1.41e6
lmgA + lmgB,DRSC24454,4.33e5,4.62e5,5.72e5,5.94e5
CG3040,DRSC22486,4.45e5,5.52e5,6.13e5,8.59e5
CG32371,DRSC22209,5.92e5,5.28e5,2.04e6,1.78e6
CG32371,DRSC26049,2.87e5,1.93e5,7.59e5,8.41e5
vers (versatile),DRSC23232,6.64e5,5.79e5,1.18e6,8.53e5
Cep164 (centrosomal protein 164),DRSC20163,4.96e5,2.91e5,3.81e6,2.76e6
CG6688,DRSC16094,2.01e5,1.84e5,2.56e6,2.82e6
CG6688,DRSC25613,7.76e5,8.69e5,1.31e6,1.27e6
CG15571,DRSC18059,2.34e5,1.71e5,2.42e6,2.30e6
CG15571,DRSC30098,1.45e6,2.00e6,1.24e6,1.17e6
CG14070,DRSC02373,2.86e5,2.77e5,1.99e6,2.03e6
drpr (draper),DRSC08143,92665,89705,9.08e5,9.09e5
drpr (draper),DRSC08525,71161,71577,9.21e5,1.09e6
CG40948 (retired record),DRSC38773,1.05e6,9.12e5,2.57e6,2.13e6
Ir93a (Ionotropic receptor 93a),DRSC15212,58776,70913,5.58e5,5.87e5
Ir93a (Ionotropic receptor 93a),DRSC15213,2.56e5,3.15e5,3.00e6,3.53e6
Ir93a (Ionotropic receptor 93a),DRSC28149,7.54e5,5.08e5,1.45e6,1.23e6
CG32221,DRSC09638,2.05e5,1.39e5,6.06e5,5.67e5
Cyp12d1-d + Cyp12d1-p,DRSC21507,6.69e5,7.82e5,3.07e6,2.41e6
Cyp12d1-d + Cyp12d1-p,DRSC27261,2.10e5,3.09e5,5.46e5,6.30e5
Ugt50B3 (UDP-glycosyltransferase family 50 member B3),DRSC04778,1.82e5,2.81e5,3.90e5,4.39e5
Ugt50B3 (UDP-glycosyltransferase family 50 member B3),DRSC21419,2.68e5 (active),3.01e5,1.61e6,1.40e6
pncr004:X (retired record),DRSC37922,6.68e5,6.74e5,1.40e6,1.58e6
CG34445,DRSC22404,2.77e5,5.47e5,4.17e5,5.10e5
Pex13 (Peroxin 13),DRSC06877,8.01e5,7.50e5,1.75e6,2.36e6

Reformatted: results already given.
{"target gene":"CG6048","dsRNA":"DRSC29218","firefly reporter light, replicate 1":6.23e5,"firefly reporter light, replicate 2":6.58e5,"Renilla control light, replicate 1":1.07e6,"Renilla control light, replicate 2":1.46e6}
{"target gene":"lace","dsRNA":"DRSC03564","firefly reporter light, replicate 1":6.53e5,"firefly reporter light, replicate 2":4.72e5,"Renilla control light, replicate 1":1.23e6,"Renilla control light, replicate 2":1.47e6}
{"target gene":"CG3587","dsRNA":"DRSC18541","firefly reporter light, replicate 1":3.89e5,"firefly reporter light, replicate 2":3.02e5,"Renilla control light, replicate 1":1.43e6,"Renilla control light, replicate 2":6.84e5}
{"target gene":"CG3587","dsRNA":"DRSC21966","firefly reporter light, replicate 1":5.96e5,"firefly reporter light, replicate 2":5.09e5,"Renilla control light, replicate 1":1.43e6,"Renilla control light, replicate 2":1.03e6}
